Results deposited as PubChem BioAssay AID504808 (Drosophila RNAi Screening Center, 2011).

Test: 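Chromatin factors that keep E2F targets switched off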 (primary screen)
System: Drosophila S2 cells
Reagent: long dsRNA against Drosophila genes
Measured: 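Dual luciferase plate measurements; E2F-specific signal taken as firefly over Renilla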
Direction: E2F firefly: higher = more E2F reporter activity; Renilla normaliser: higher = more normaliser reporter signal
Call rule: 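a knock-down counted as active when the firefly/Renilla E2F signal rose above 50%, a threshold chosen arbitrarily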
The deposit covers about 21,000 reagents; below is a random part of those that have a named target and a result. Of all reagents, 18 (0.084%) were called active. 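Raw counts without plate normalisation, one of two replicates; the ratio scores behind the calls were not deposited.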 Unmarked entries are inactive. The record does not give: the amount of reagent, the time to read-out.

The first 4 entries, ahead of the listing:
| Target gene | amplicon | E2F firefly, rep 1 | Renilla normaliser, rep 1 |
| --- | --- | --- | --- |
| Schip1 (Schwannomin interacting protein 1) | DRSC02851 | 1.48e5 | 4917 |
| CG16741 | DRSC06622 | 1.35e5 | 4527 |
| CG14642 | DRSC12228 | 87563 | 4267 |
| CG9902 | DRSC20212 | 2.19e5 | 9405 |

Main list, from the first entry:
| Target gene | amplicon | E2F firefly, rep 1 | Renilla normaliser, rep 1 |
| --- | --- | --- | --- |
| Schip1 (Schwannomin interacting protein 1) | DRSC02851 | 1.48e5 | 4917 |
| CG16741 | DRSC06622 | 1.35e5 | 4527 |
| CG14642 | DRSC12228 | 87563 | 4267 |
| CG9902 | DRSC20212 | 2.19e5 | 9405 |
| cactin | DRSC20576 | 95172 | 6104 |
| bur (burgundy) | DRSC03163 | 80386 | 3702 |
| Zir (Zizimin-related) | DRSC00307 | 95920 | 3522 |
| IFT46 (Intraflagellar transport 46) | DRSC02462 | 89844 | 3938 |
| Grl58a (Gustatory receptor-like 58a) | DRSC04145 | 1.02e5 | 3557 |
| plh (pasang lhamu) | DRSC12294 | 1.22e5 | 5491 |
| CG32655 | DRSC18925 | 87562 | 2731 |
| Pak (p21-activated kinase) | DRSC12602 | 64027 | 3934 |
| betaggt-I (beta subunit of type I geranylgeranyl transferase) | DRSC03494 | 1.50e5 | 5135 |
| CG9205 | DRSC08642 | 67289 | 3904 |
| Tep2 (Thioester-containing protein 2) | DRSC02679 | 1.43e5 | 4570 |
| Tep2 (Thioester-containing protein 2) | DRSC03451 | 1.47e5 | 4782 |
| CG31460 | DRSC14370 | 69098 | 3323 |
| Or67d (Odorant receptor 67d) | DRSC10158 | 77214 | 2391 |
| PGRP-SC1a (Peptidoglycan recognition protein SC1a) | DRSC06482 | 1.56e5 | 5278 |
| CG9416 | DRSC07339 | 1.66e5 | 5633 |
| CG1354 | DRSC17902 | 1.08e5 | 5340 |
| CG10927 | DRSC06014 | 67532 | 3065 |
| Kdm5 (Lysine demethylase 5) | DRSC03133 | 50288 | 208 |
| cas (castor) | DRSC12373 | 1.17e5 | 6440 |
| CG4793 | DRSC01966 | 1.11e5 | 4202 |
| dpn (deadpan) | DRSC07605 | 1.24e5 | 4171 |
| CG17600 | DRSC20638 | 1.38e5 | 5773 |
| CG17600 | DRSC20640 | 1.32e5 | 6481 |
| CG11722 | DRSC14358 | 1.11e5 | 7680 |
| Drak (Death-associated protein kinase related) | DRSC19778 | 1.26e5 | 6200 |
| Prosalpha4 (Proteasome alpha4 subunit) | DRSC20271 | 1.95e5 | 6508 |
| CG13599 | DRSC14602 | 1.09e5 | 5734 |
| TwdlC (TweedleC) | DRSC14749 | 1.12e5 | 5996 |
| CG8476 | DRSC16426 | 1.09e5 | 5440 |
| gsb (gooseberry) | DRSC04692 | 1.28e5 | 4852 |
| fs(1)Ya (female sterile (1) Young arrest) | DRSC18776 | 1471 | 892 |
| nxf2 (nuclear RNA export factor 2) | DRSC10403 | 78699 | 3441 |
| CG13047 | DRSC09928 | 1.81e5 | 9066 |
| dor (deep orange) | DRSC18765 | 1858 | 1048 |
| pip (pipe) | DRSC11382 | 1.38e5 | 6320 |
| Mipp1 (Multiple inositol polyphosphate phosphatase 1) | DRSC11223 | 78015 | 3373 |
| wb (wing blister) | DRSC01375 | 81860 | 2567 |
| wb (wing blister) | DRSC03634 | 1.04e5 | 4414 |
| Femcoat | DRSC18061 | 1.10e5 | 5875 |
| mtt (mangetout) | DRSC05106 | 1.27e5 | 4298 |
| mtt (mangetout) | DRSC05107 | 1.21e5 | 4153 |
| mtt (mangetout) | DRSC06753 | 1.39e5 | 5131 |
| mtt (mangetout) | DRSC07235 | 1.36e5 | 4782 |
| CG1722 | DRSC20547 | 1.34e5 | 7169 |
| Traf6 (TNF-receptor-associated factor 6) | DRSC18725 | 1.19e5 | 5400 |
| Acf (ATP-dependent chromatin assembly factor large subunit) | DRSC14101 | 2393 | 916 |
| Art7 (Arginine methyltransferase 7) | DRSC04588 | 98945 | 4186 |
| CG9926 | DRSC16582 | 80647 | 3831 |
| PIG-H (Phosphatidylinositol glycan anchor biosynthesis class H) | DRSC14856 | 1.66e5 | 7097 |
| YL-1 | DRSC02765 | 2.29e5 (active) | 147 |
| v (vermilion) | DRSC20383 | 7919 | 760 |
| Idgf4 (Imaginal disc growth factor 4) | DRSC18675 | 1.23e5 | 6617 |
| Mad | DRSC00759 | 1.55e5 | 4827 |
| Obp99d (Odorant-binding protein 99d) | DRSC15046 | 1.24e5 | 6788 |
| CG12985 | DRSC19505 | 1.52e5 | 6233 |
| Klp98A (Kinesin-like protein at 98A) | DRSC16724 | 1.12e5 | 6151 |
| Edg84A (Ecdysone-dependent gene 84A) | DRSC12594 | 1.50e5 | 7313 |
| RPA2 (Replication protein A2) | DRSC03184 | 81500 | 3287 |
| Ccp84Ac | DRSC12588 | 1.33e5 | 6054 |
| Moe (Moesin) | DRSC18684 | 8038 | 736 |
| CG30196 | DRSC04156 | 1.11e5 | 4513 |
| CG15145 | DRSC02446 | 1.08e5 | 4561 |
| Nelf-A (Negative elongation factor A) | DRSC15903 | 67616 | 3583 |
| CG5167 | DRSC15728 | 1.50e5 | 7114 |
| robls54B (roadblock similar 54B) | DRSC05660 | 1.71e5 | 6782 |
| CG40551 (retired record) | DRSC21229 | 71691 | 5034 |
| CAH3 (Carbonic anhydrase 3) | DRSC17776 | 1.08e5 | 5783 |
| CG13001 | DRSC19520 | 2.40e5 | 8342 |
| tn (thin) | DRSC05768 | 1.63e5 | 7510 |
| tn (thin) | DRSC06532 | 84926 | 4011 |
| CG16863 | DRSC01892 | 1.08e5 | 4383 |
| Grip71 | DRSC02042 | 1.01e5 | 3784 |
| Grasp65 | DRSC10917 | 1.34e5 | 7586 |
| CG2104 | DRSC12304 | 1.32e5 | 6410 |
| CG14739 | DRSC14959 | 1.48e5 | 6295 |
| CG45067 | DRSC08414 | 1.04e5 | 4634 |
| CG18748 | DRSC15385 | 1.45e5 | 7690 |
| CG4836 | DRSC15659 | 63293 | 3212 |
| CG2126 | DRSC15418 | 1.22e5 | 5005 |
